# Assay results taken from PubChem BioAssay AID485298 (National Center for Advancing Translational Sciences (NCATS), 2010).
# The whole screen tested about 320,000 compounds, of which about 740 (0.23%) were called active. The shares of active, inactive and inconclusive entries below differ from those in the screen. The call rests on the fitted dose curve; in most records, active means well fitted activation curve with a large enough effect; inconclusive means small, poorly fitted or top-dose-only effect; inactive means no such curve, though single readings can be large or run the other way. A potency beside an inconclusive call is a rough fit, not a confirmed value.
# Test: qHTS Assay for Small Molecule Inhibitors of Mitochondrial Division or Activators of Mitochondrial Fusion; further: nearly all actives have a fitted effect of over 45% in size
# Settings: S. cerevisiae fusion-defective mutant growth rescue, CellTiterGlo 48 h; series mostly up to 46.1 µM
# How it was run: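 Yeast fusion mutant, YPEG (non-fermentable carbon), compound, 48 h at 37C non-permissive; CellTiterGlo added, 10 min RT, luminescence read. Rescued growth = division inhibition.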
# Potency means the concentration at half of the fitted maximal effect.
row,SMILES,Potency
1,O=C1C=C(c2ccc3cc[nH]c3c2)C[C@@H](c2ccc3c(c2)OCO3)C1,"inconclusive: 22.4 µM [activator, single point]"
2,COc1cc(/C=N/Nc2nc(Nc3ccccc3)nc(N3CCCCC3)n2)ccc1OCC(=O)O,"inconclusive: 25.1 µM [activator, single point]"
3,CCOC(=O)N1CCN(c2c(NCc3ccc(Cl)cc3)c(=O)c2=O)CC1,inactive
4,O=c1[nH]c(C(Cl)Cl)nc2sc3c(c12)CCN(Cc1ccccc1)C3,"inconclusive: 11.2 µM [activator, partial curve]"
5,NC[C@@H]1O[C@H](c2ccccc2)Cc2c1ccc(O)c2O,active: 16.4 µM
6,CC1CCc2[nH]c3ccc(C(=O)N(C)CC(=O)Nc4ccccc4Br)cc3c2C1 (stereo not drawn),"inconclusive: 22.4 µM [activator, single point]"
7,CCCCc1c(C)nc2ccccc2c1SCCC#N,"inconclusive: 11.2 µM [activator, partial curve]"
8,COC(=O)[C@]1(C)N[C@H](c2ccc(SC3CCCCC3)cc2)[C@@H]2C(=O)N(C)C(=O)[C@@H]21,"inconclusive: 14.1 µM [activator, single point]"
9,O=C(c1cccs1)N(CCN1CCCCC1)CC1CCCN(C2CCCC2)C1 (stereo not drawn),inactive
10,COCCNc1c2c(c(C#N)c3nc4ccccc4n13)CCCC2,"inconclusive: 1 µM [activator, full curve, poor fit]"
11,O=C1C=C(c2ccccc2Oc2ccccc2)C[C@@H](c2ccc3c(c2)OCO3)C1,"inconclusive: 20 µM [activator, single point]"
12,Cc1cc(C)n2nc(SCc3cc(=O)oc4ccc5ccccc5c34)nc2n1,inactive
13,CC(C)(C)OC(=O)CNC(=O)c1[nH]cnc1C(=O)NC1CCN(C(=O)OC(C)(C)C)CC1,"inconclusive: 4.47 µM [activator, single point]"
14,Cc1nn(-c2ccccc2)c(Cl)c1CN(C(=O)CCl)c1cccc2ccccc12,"inconclusive: 28.2 µM [activator, single point]"
15,COc1ccc(OC)c(Nc2nc(N(C)c3ccccc3)nc(N)c2[N+](=O)[O-])c1,"inconclusive: 8.91 µM [activator, partial curve]"
16,COc1ccccc1CN1C[C@@H]2C[C@@H](c3ccc(C)cc3)N3CCC[C@@]23C1=O,inactive
17,CCOc1ccc(/C=C2/SC(=O)NC2=S)cc1,"inconclusive: 22.4 µM [activator, single point]"
18,CC(C)CCNC(=O)C1CCCN(S(=O)(=O)c2ccc3c(c2)CC(C)N3C(=O)C2CC2)C1 (stereo not drawn),"inconclusive: 11.2 µM [activator, partial curve]"
19,COc1cc(NCCCC(C)N)c2ncccc2c1 (stereo not drawn),inactive
20,Cc1cccc(N2CCN(C(=O)CCCn3c(=O)c4cccn4c4cccnc43)CC2)c1C,"inconclusive: 35.5 µM [activator, single point]"
21,O=Cc1cn(-c2ccccc2)nc1-c1ccncc1,"inconclusive: 22.4 µM [activator, single point]"
22,CC1(NC(=O)CC(c2ccccc2)(c2ccccc2)c2ccccc2)CCN(CCCc2ccccc2)C1=O (stereo not drawn),"inconclusive: 8.91 µM [activator, single point]"
23,Cc1cc([N+](=O)[O-])ccc1NC(=S)NC(=O)Cc1ccccc1,inactive
24,Cc1ccc(C(=O)Nc2nnc(-c3ccco3)o2)cc1C,"inconclusive: 20 µM [activator, single point]"
25,CSc1ccc(/C=C/C(=O)OCC(=O)NC(C)C)cc1,inactive

row,SMILES,Potency
1,O=S(=O)(NC(=NC1CCCCC1)c1ccccc1F)c1ccccc1,active: 0.631 µM
2,O=C(c1ccc(CSc2ccccc2)cc1)N1CCCCCC1,active: 10 µM
3,Cc1ccn2c(=O)nc(SCC(=O)N3N=C(c4cccs4)CC3c3ccc(F)cc3)nc2c1 (stereo not drawn),inactive
4,Cc1ccc(S(=O)(=O)Nc2ccc3c(c2)CCC3)cc1,"inconclusive: 35.5 µM [activator, single point]"
5,Cc1cc(C)c(C#N)c(SCC(=O)c2ccccc2)n1,"inconclusive: 31.6 µM [activator, partial curve]"
6,O=C(Nc1ccc(O)c(-c2nc3ccccc3s2)c1)C1=COCCO1,"inconclusive: 5.01 µM [activator, single point]"
7,O=C(c1ccc(Cl)cc1)N1CCN(c2ccc([N+](=O)[O-])c3ncccc23)CC1,active: 23.1 µM
8,CC(NCC(=O)Nc1cc(S(=O)(=O)N2CCOCC2)ccc1Cl)c1ccc(Cl)cc1Cl (stereo not drawn),"inconclusive: 14.1 µM [activator, single point]"
9,COc1ccc(C=C(c2nc3ccccc3s2)c2nc3ccccc3s2)cc1O,"inconclusive: 12.6 µM [activator, partial curve]"
10,S=c1[nH]c2cc(-c3ccccc3)ccc2o1,active: 15.8 µM
11,O=[N+]([O-])c1ccc(O)c(P(=O)(c2ccccc2)c2ccccc2)c1,"inconclusive: 11.2 µM [activator, partial curve]"
12,COc1cc(OC)cc(C(=O)Nc2ncn[nH]2)c1,inactive
13,O=C(N/N=C/c1ccccc1O)C1SCCCS1,inactive
14,Cc1ccc(-n2c(C)cc(C(=O)Cn3nc(C(=O)O)c4ccccc4c3=O)c2C)cc1,"inconclusive: 14.1 µM [activator, partial curve]"
15,CCN(CC)C(=O)c1sc2c(c1C)c(=O)n(-c1ccc(C)c(C)c1)c(=O)n2CC(=O)NCC1CCCO1 (stereo not drawn),inactive
16,O=c1ccnc(SCCC(F)=C(F)F)[nH]1,"inconclusive: 20 µM [activator, partial curve]"
17,Cc1cc([N+](=O)[O-])nn1Cc1ccc(C(=O)N/N=C/c2ccc(F)cc2)cc1,inactive
18,S=c1[nH]ccn1-c1ccc(Cl)cc1,"inconclusive: 31.6 µM [activator, single point]"
19,O=C(O)c1cc(S(=O)(=O)O)cc(Nc2c3ccccc3nc3ccccc23)c1O,"inconclusive: 11.2 µM [activator, partial curve]"
20,C=CCn1c(O)c(N=NC(=S)Nc2ccccc2F)c2ccccc21,inactive
21,COC1(NC(=O)c2ccccc2)C(C)=CC(=O)C=C1C,"inconclusive: 12.6 µM [activator, single point]"
22,CCC(CC)NC(=O)COC(=O)c1cc(SC)ccc1Cl,inactive
23,COCCCNC(=O)/C=C/c1cccc(Cl)c1,inactive
24,CC(=O)NC(c1cccs1)c1cc(F)c2cccnc2c1O (stereo not drawn),"inconclusive: 15.8 µM [activator, single point]"
25,CCOC(=O)c1sc2nc(C)cc(-c3ccccc3)c2c1N,"inconclusive: 35.5 µM [activator, single point]"

# Look-ups from the results shown.
# Under Potency, O=[N+]([O-])c1ccc(O)c(P(=O)(c2ccccc2)c2ccccc2)c1 is listed with inconclusive: 11.2 µM [activator, partial curve]
# Under Potency, COC1(NC(=O)c2ccccc2)C(C)=CC(=O)C=C1C is listed with inconclusive: 12.6 µM [activator, single point]
# Under Potency, O=S(=O)(NC(=NC1CCCCC1)c1ccccc1F)c1ccccc1 is listed with active: 0.631 µM
# Under Potency, CCOC(=O)N1CCN(c2c(NCc3ccc(Cl)cc3)c(=O)c2=O)CC1 is listed with inactive

# (next part)

row,SMILES,Potency
1,COc1ccccc1-c1oc2ccccc2c1C#CC(C)(C)O,"inconclusive: 11.2 µM [activator, single point]"
2,N#C/C(=C\c1ccc(Sc2nc3ccccc3[nH]2)o1)c1ccccc1,"inconclusive: 12.6 µM [activator, partial curve]"
3,COc1cc(-c2nc(-c3ccccc3)c(-c3cccs3)[nH]2)cc(OC)c1O,inactive
4,O=C1CN(C(=O)COc2ccc([N+](=O)[O-])cc2Cl)c2ccccc2N1,inactive
5,O=C(Cc1ccc(Cl)cc1)N1CCN(c2ccc(F)cc2)CC1,"inconclusive: 3.55 µM [activator, full curve]"
6,COc1ccc(CNc2oc(Cc3cccc4ccccc34)nc2C#N)cc1,"inconclusive: 15.8 µM [activator, single point]"
7,Cc1ccc(S(=O)(=O)Nc2ccc(-c3csc(-c4ccccc4)n3)cc2)cc1,"inconclusive: 11.2 µM [activator, single point]"
8,COC(=O)c1ccc(Cl)c(NC(=O)CN2CCC(C)CC2)c1,"inconclusive: 3.55 µM [activator, partial curve]"
9,COc1cccc(CN2C(=O)c3ccccc3S2(=O)=O)c1,inactive
10,Cc1ccc(Nc2nc(CSc3nnc(-c4ccc(F)cc4)n3C)cs2)cc1,"inconclusive: 35.5 µM [activator, single point]"
11,CSc1ccc(CN(C)C(=O)C(c2ccccc2)c2ccccc2)cc1,inactive
12,CC1CCc2cc(F)ccc2N1C(=O)c1ccc2c(c1)OCO2 (stereo not drawn),"inconclusive: 12.6 µM [activator, single point]"
13,Cc1ccsc1CN(C)CC(=O)Nc1cccc(S(=O)(=O)N(C)c2ccccc2)c1,"inconclusive: 14.1 µM [activator, single point]"
14,O=C1N(c2ccccc2)c2ccccc2C1(Cc1ccncc1)Cc1ccncc1,"inconclusive: 20.6 µM [activator, single point]"
15,CCNc1nc(N)nc(Oc2ccc(OCc3ccccc3)nn2)n1,inactive
16,Cc1oc(-c2cccs2)nc1CS(=O)CC(=O)NC1CCCCCC1 (stereo not drawn),inactive
17,COc1ccc(NS(=O)(=O)c2ccc3oc(=O)c4[nH]c(=O)c(=O)n(C)c4c3c2)cc1,inactive
18,CCOC(=O)c1ccc(NS(=O)(=O)c2ccc(SC)cc2)cc1,active: 20 µM
19,CC1CC(C)CN(C(=O)c2ccc3c(c2)N(Cc2ccccc2)CCS3)C1 (stereo not drawn),"inconclusive: 12.6 µM [activator, partial curve]"
20,Cc1ccccc1N1C(=O)c2cc(S(N)(=O)=O)c(Cl)cc2NC1C (stereo not drawn),"inconclusive: 32.6 µM [activator, single point]"
21,CC1Cc2ccccc2N1C(=O)CSc1nnc2n1C(C)(C)Cc1ccccc1-2 (stereo not drawn),"inconclusive: 11.2 µM [activator, partial curve]"
22,Cc1ccc2c(c1)C(=O)C(=O)N2CCCOc1ccccc1,inactive
23,Cc1cccc(Nc2nc(-c3ccc(F)cc3)cs2)n1,inactive
